Where two headings read alike, the source gives them in different places. Results are given in words; binding and its absence hold for the method and conditions named. Some binding calls cover weakened binding; strength is not graded here.
T1: adrenodoxin (human, UniProt P10109 61-184)
T1 sequence (looked up): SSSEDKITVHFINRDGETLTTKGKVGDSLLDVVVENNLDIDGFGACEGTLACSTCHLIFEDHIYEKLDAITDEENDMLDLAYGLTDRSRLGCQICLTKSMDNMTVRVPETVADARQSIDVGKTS


Experiments:
Experiment in all cases: SPR
adrenodoxin [1] = target: T1, adrenodoxin
adrenodoxin [2] = target: T1, adrenodoxin; remark: listed apart in the source
adrenodoxin [3] = target: T1, adrenodoxin; remark: listed apart in the source
adrenodoxin [4] = target: T1, adrenodoxin; remark: listed apart in the source
adrenodoxin [5] = target: T1, adrenodoxin; remark: listed apart in the source
adrenodoxin [6] = target: T1, adrenodoxin; remark: listed apart in the source

binding (adrenodoxin [1])	binding (adrenodoxin [2])	binding (adrenodoxin [3])	binding (adrenodoxin [4])	binding (adrenodoxin [5])	binding (adrenodoxin [6])	Binder
binds	binds	binds	binds	binds	–	cytochrome P450 CYP11B1 (11ß-hydroxylase) (enzyme, human) VPRTVLPFEAMPRRPGNRWLRLLQIWREQGYEDLHLEVHQTFQELGPIFRYDLGGAGMVCVMLPEDVEKLQQVDSLHPHRMSLEPWVAYRQHRGHKCGVFLLNGPEWRFNRLRLNPEVLSPNAVQRFLPMVDAVARDFSQALKKKVLQNARGSLTLDVQPSIFHYTIEASNLALFGERLGLVGHSPSSASLNFLHALEVMFKSTVQLMFMPRSLSRWTSPKVWKEHFEAWDCIFQYGDNCIQKIYQELAFSRPQQYTSIVAELLLNAELSPDAIKANSMELTAGSVDTTVFPLLMTLFELARNPNVQQALRQESLAAAASISEHPQKATTELPLLRAALKETLRLYPVGLFLERVASSDLVLQNYHIPAGTLVRVFLYSLGRNPALFPRPERYNPQRWLDIRGSGRNFYHVPFGFGMRQCLGRRLAEAEMLLLLHHVLKHLQVETLTQEDIKMVYSFILRPSMFPLLTFRAIN
–	binds	binds	–	–	–	cytochrome P450 CYP11B2 (aldosterone synthase) (enzyme, human, UniProt P19099 25-503, looked up) GTRAARAPRTVLPFEAMPQHPGNRWLRLLQIWREQGYEHLHLEMHQTFQELGPIFRYNLGGPRMVCVMLPEDVEKLQQVDSLHPCRMILEPWVAYRQHRGHKCGVFLLNGPEWRFNRLRLNPDVLSPKAVQRFLPMVDAVARDFSQALKKKVLQNARGSLTLDVQPSIFHYTIEASNLALFGERLGLVGHSPSSASLNFLHALEVMFKSTVQLMFMPRSLSRWISPKVWKEHFEAWDCIFQYGDNCIQKIYQELAFNRPQHYTGIVAELLLKAELSLEAIKANSMELTAGSVDTTAFPLLMTLFELARNPDVQQILRQESLAAAASISEHPQKATTELPLLRAALKETLRLYPVGLFLERVVSSDLVLQNYHIPAGTLVQVFLYSLGRNAALFPRPERYNPQRWLDIRGSGRNFHHVPFGFGMRQCLGRRLAEAEMLLLLHHVLKHFLVETLTQEDIKMVYSFILRPGTSPLLTFRAIN
–	binds	–	–	–	binds	cytochrome P450 CYP11A1 (cholesterol side chain cleavage enzyme) (enzyme, human) STRSPRPFNEIPSPGDNGWLNLYHFWRETGTHKVHLHHVQNFQKYGPIYREKLGNVESVYVIDPEDVALLFKSEGPNPERFLIPPWVAYHQYYQRPIGVLLKKSAAWKKDRVALNQEVMAPEATKNFLPLLDAVSRDFVSVLHRRIKKAGSGNYSGDISDDLFRFAFESITNVIFGERQGMLEEVVNPEAQRFIDAIYQMFHTSVPMLNLPPDLFRLFRTKTWKDHVAAWDVIFSKADIYTQNFYWELRQKGSVHHDYRGILYRLLGDSKMSFEDIKANVTEMLAGGVDTTSMTLQWHLYEMARNLKVQDMLRAEVLAARHQAQGDMATMLQLVPLLKASIKETLRLHPISVTLQRYLVNDLVLRDYMIPAKTLVQVAIYALGREPTFFFDPENFDPTRWLSKDKNITYFRNLGFGWGVRQCLGRRIAELEMTIFLINMLENFRVEIQHLSDVGTTFNLILMPEKPISFTFWPFNQEATQQ
